Assay [1] relates to ReNCell VM. Nature of the assay: neuronal differentiation score (DCX+ cell fraction vs untreated, manual image score) (score (-3 to 3)); higher = more neuronal differentiation. The following applies: 2 uM, 2 weeks.
The subject of assay [2] is ReNCell VM. Nature of the assay: dopaminergic neuron differentiation score (TH+ cell fraction vs untreated, manual image score) (score (0 to 3)); higher = more TH+ dopaminergic neuron differentiation. The following applies: 2 uM, 4 weeks, BDNF 10 ng/ml + GDNF 10 ng/ml.

Structures can show the parent of a compound that is named as a salt. Some of the results follow. Repeats in this data set agree poorly, so a single value says little.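 Human fetal ventral-midbrain neural progenitor line ReNCell VM, differentiated without mitogens. Images stained for doublecortin (early neurons) or tyrosine hydroxylase (dopaminergic neurons) were scored by blinded raters against untreated wells (0 = no change). Repeats and both raters were averaged, and compounds averaging 2 or higher were picked as hits for retesting.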

`Cc1cccc(CN2CCN(C(c3ccccc3)c3ccc(Cl)cc3)CC2)c1` (stereo not drawn): the neuronal differentiation score with ReNCell VM [1] (library: Spectrum) was inactive: 0. The “dopaminergic neuron differentiation score” value in the assay with ReNCell VM [2] (library: Spectrum) is inactive: 0.

In the case of `O=C(NC(NC(=S)Nc1ccc(F)c([N+](=O)[O-])c1)C(Cl)(Cl)Cl)C(c1ccccc1)c1ccccc1` (stereo not drawn), in the assay with ReNCell VM [1] (library: Tocriscreen), the neuronal differentiation score was inactive: 0. The “dopaminergic neuron differentiation score” value with ReNCell VM [2] (library: Tocriscreen) is inactive: 0.

For `CNCC(O)c1ccc(OC(=O)C(C)(C)C)c(OC(=O)C(C)(C)C)c1` (stereo not drawn) [Dipivefrin hydrochloride], the neuronal differentiation score in the assay on ReNCell VM [1] (library: Prestwick) was inactive: 0. The “dopaminergic neuron differentiation score” value in the assay on ReNCell VM [2] (library: Prestwick) is inactive: 0.

Consider `C[C@]12CCC3c4ccc(OC(=O)c5ccccc5)cc4CCC3C1CCC2=O` (stereo partly drawn), for which the neuronal differentiation score in the assay with ReNCell VM [1] (library: Spectrum) was inactive: 0. In the assay on ReNCell VM [2] (library: Spectrum), the “dopaminergic neuron differentiation score” value is inactive: 0.

Turning to `O=c1ccc2ccc(O)cc2o1`, in the assay with ReNCell VM [1] (library: Spectrum), the neuronal differentiation score was inactive: 0. The “dopaminergic neuron differentiation score” value with ReNCell VM [2] (library: Spectrum) is inactive: 0.

In the case of `CCOC(=O)/C=C(C)/C=C/C=C(C)/C=C/c1c(C)cc(OC)c(C)c1C` [Etretinate], the neuronal differentiation score in the assay with ReNCell VM [1] (library: Prestwick) is inactive: 0. Also, the “dopaminergic neuron differentiation score” value with ReNCell VM [2] (library: Prestwick) is inactive: 0.

For `O=C(O)c1cc(=O)cc(C(=O)O)[nH]1` [Chelidamic acid], in the assay with ReNCell VM [1] (library: LOPAC), the neuronal differentiation score was inactive: 0. The “dopaminergic neuron differentiation score” value with ReNCell VM [2] (library: LOPAC) is inactive: 1.

With `N#Cc1ccc(C2CCCc3cncn32)cc1` (stereo not drawn) [Fadrozole hydrochloride], the neuronal differentiation score in the assay with ReNCell VM [1] (library: Prestwick) is inactive: 0. Also, the “dopaminergic neuron differentiation score” value in the assay on ReNCell VM [2] (library: Prestwick) was inactive: 0.

For the molecule `CN1c2cc3c(cc2N=C(c2ccc(C(=O)O)cc2)c2ccccc21)C(C)(C)CCC3(C)C`, the neuronal differentiation score with ReNCell VM [1] (library: Tocriscreen) is inactive: 0. Further, the “dopaminergic neuron differentiation score” value with ReNCell VM [2] (library: Tocriscreen) is inactive: 0.

Take `CC1(C)O[C@@H]2C[C@H]3[C@@H]4C[C@H](F)C5=CC(=O)CC[C@]5(C)[C@H]4[C@@H](O)C[C@]3(C)[C@]2(C(=O)CO)O1` [Flurandrenolide]: the neuronal differentiation score with ReNCell VM [1] (library: Prestwick) was inactive: 0. In the assay on ReNCell VM [2] (library: Prestwick), the “dopaminergic neuron differentiation score” value is inactive: 1.

For the molecule `COc1ccc2c(c1)c(CC(=O)O)c(C)n2Cc1ccc(F)cc1` [1-(4-Fluorobenzyl)-5-methoxy-2-methylindole-3-acetic acid], the neuronal differentiation score in the assay on ReNCell VM [1] (library: LOPAC) is inactive: 0. For the same molecule, in the assay with ReNCell VM [2] (library: LOPAC), the “dopaminergic neuron differentiation score” value is inactive: 0.

With `C=C(CC)C(=O)c1ccc(OCC(=O)O)c(Cl)c1Cl` [Ethacrynic acid], the neuronal differentiation score with ReNCell VM [1] (library: Prestwick) was inactive: 0. Moreover, the “dopaminergic neuron differentiation score” value in the assay on ReNCell VM [2] (library: Prestwick) is inactive: 0.

For the molecule `OC[C@H]1NC[C@H](O)[C@@H](O)[C@@H]1O` [1-Deoxynojirimycin hydrochloride], in the assay with ReNCell VM [1] (library: LOPAC), the neuronal differentiation score is inactive: 0. The “dopaminergic neuron differentiation score” value in the assay with ReNCell VM [2] (library: LOPAC) was inactive: 0.

As for `CCCCCCNC(=O)n1cc(F)c(=O)[nH]c1=O`, the neuronal differentiation score in the assay with ReNCell VM [1] (library: Spectrum) was inactive: 0. Moreover, the “dopaminergic neuron differentiation score” value with ReNCell VM [2] (library: Spectrum) is inactive: 0.

For the molecule `O=C1NC(=O)C(c2ccccc2)(c2ccccc2)N1` [5,5-Diphenylhydantoin], the neuronal differentiation score in the assay with ReNCell VM [1] (library: LOPAC) was inactive: 0. Also, the “dopaminergic neuron differentiation score” value in the assay on ReNCell VM [2] (library: LOPAC) is inactive: 0.

In the case of `O=NN(CCCl)C(=O)NC1CCCCC1`, the neuronal differentiation score in the assay with ReNCell VM [1] (library: Spectrum) was inactive: 0. In addition, in the assay with ReNCell VM [2] (library: Spectrum), the “dopaminergic neuron differentiation score” value is inactive: 0.

Turning to `CC12CC3CC(C)(C1)CC(N)(C3)C2`, the neuronal differentiation score with ReNCell VM [1] (library: Spectrum) was inactive: 0. In the assay on ReNCell VM [2] (library: Spectrum), the “dopaminergic neuron differentiation score” value is inactive: 0.

As for `C#CCCCCCCCCCCCc1ccco1`, the neuronal differentiation score in the assay with ReNCell VM [1] (library: Spectrum) is inactive: 0. Further, in the assay with ReNCell VM [2] (library: Spectrum), the “dopaminergic neuron differentiation score” value is inactive: 0.

For `C[C@H]1COc2c(N3CCN(C)CC3)c(F)cc3c(=O)c(C(=O)O)cn1c23`, in the assay with ReNCell VM [1] (library: Spectrum), the neuronal differentiation score was inactive: 0. Further, the “dopaminergic neuron differentiation score” value in the assay with ReNCell VM [2] (library: Spectrum) was inactive: 0.

As for `COc1ccc(-c2coc3cc(O)cc(O)c3c2=O)cc1`, the neuronal differentiation score with ReNCell VM [1] (library: Spectrum) was inactive: 0. For the same molecule, the “dopaminergic neuron differentiation score” value in the assay on ReNCell VM [2] (library: Spectrum) is inactive: 0.

Regarding `CN(C)/N=N/c1[nH]cnc1C(N)=O` [Dacarbazine], the neuronal differentiation score in the assay with ReNCell VM [1] (library: Prestwick) is inactive: 0. Further, in the assay with ReNCell VM [2] (library: Prestwick), the “dopaminergic neuron differentiation score” value is inactive: 0.

Regarding `CC1(C)OC(=O)NC1=O`, the neuronal differentiation score with ReNCell VM [1] (library: Spectrum) was inactive: 0. In addition, the “dopaminergic neuron differentiation score” value in the assay on ReNCell VM [2] (library: Spectrum) was inactive: 0.

Turning to `CCCc1nn(C)c2c(=O)[nH]c(-c3cc(S(=O)(=O)N4CCN(C)CC4)ccc3OCC)nc12`, the neuronal differentiation score in the assay with ReNCell VM [1] (library: Spectrum) is inactive: 1. Besides, the “dopaminergic neuron differentiation score” value with ReNCell VM [2] (library: Spectrum) is inactive: 0.

As for `C[N+]1(C)CCC(=C(c2ccccc2)c2ccccc2)CC1` [Diphemanil methylsulfate], the neuronal differentiation score with ReNCell VM [1] (library: Prestwick) is inactive: 0. Moreover, the “dopaminergic neuron differentiation score” value in the assay with ReNCell VM [2] (library: Prestwick) was inactive: 0.

On to `CC(C)Cn1c(=O)n(C)c(=O)c2nc[nH]c21`, for which the neuronal differentiation score with ReNCell VM [1] (library: Spectrum) is inactive: 0. Further, the “dopaminergic neuron differentiation score” value in the assay with ReNCell VM [2] (library: Spectrum) was inactive: 0.

Take `Cc1c(NC(=O)N2CCOCC2)ccc2c1c1ccccc1n2C(C)C`: the neuronal differentiation score in the assay with ReNCell VM [1] (library: Tocriscreen) was inactive: 0. Further, the “dopaminergic neuron differentiation score” value with ReNCell VM [2] (library: Tocriscreen) is inactive: 0.

Consider `CN(C)CCC=C1c2ccccc2CCc2ccccc21`, for which the neuronal differentiation score with ReNCell VM [1] (library: Spectrum) was inactive: 0. Besides, the “dopaminergic neuron differentiation score” value in the assay with ReNCell VM [2] (library: Spectrum) was inactive: 0.

In the case of `CC1(C)CC23C(=O)CCC(O)C2(C)CCC13` (stereo not drawn), the neuronal differentiation score in the assay on ReNCell VM [1] (library: Spectrum) was inactive: 0. For the same molecule, the “dopaminergic neuron differentiation score” value with ReNCell VM [2] (library: Spectrum) is inactive: 0.

`CN1CCCN=C1/C=C/c1cccs1` [Pyrantel tartrate]: in the assay with ReNCell VM [1] (library: Prestwick), the neuronal differentiation score is inactive: 0. Moreover, the “dopaminergic neuron differentiation score” value in the assay on ReNCell VM [2] (library: Prestwick) is inactive: 0.

On to `CC(Oc1c(Cl)cccc1Cl)C1=NCCN1` (stereo not drawn), for which the neuronal differentiation score in the assay on ReNCell VM [1] (library: Spectrum) was inactive: 0. In addition, the “dopaminergic neuron differentiation score” value with ReNCell VM [2] (library: Spectrum) was inactive: 0.

As to `CC(C)(C#N)c1cc(Cn2cncn2)cc(C(C)(C)C#N)c1` [Anastrozole], the neuronal differentiation score in the assay on ReNCell VM [1] (library: Prestwick) was inactive: 0. For the same molecule, the “dopaminergic neuron differentiation score” value in the assay with ReNCell VM [2] (library: Prestwick) is inactive: 0.

Turning to `COc1ccc(CCN(C)CCCOc2ccc(S(=O)(=O)c3c(C(C)C)c4ccccc4n3C)cc2)cc1OC`, the neuronal differentiation score in the assay on ReNCell VM [1] (library: Tocriscreen) was inactive: -1. Moreover, in the assay with ReNCell VM [2] (library: Tocriscreen), the “dopaminergic neuron differentiation score” value is inactive: 0.

On to `CC[C@H](C)C(=O)O[C@H]1C[C@H](O)C=C2C=C[C@H](C)[C@H](CC[C@@H](O)C[C@@H](O)CC(=O)O)[C@H]21` [Pravastatin sodium salt], for which the neuronal differentiation score with ReNCell VM [1] (library: Tocriscreen) was inactive: 0. Also, the “dopaminergic neuron differentiation score” value with ReNCell VM [2] (library: Tocriscreen) is inactive: 0.

In the case of `CC1(C)O[C@@H]2C[C@H]3[C@@H]4CCC5=CC(=O)C=C[C@]5(C)[C@@]4(F)[C@@H](O)C[C@]3(C)[C@]2(C(=O)CO)O1` [Triamcinolone acetonide], in the assay on ReNCell VM [1] (library: Phytochemical), the neuronal differentiation score was inactive: 0. The “dopaminergic neuron differentiation score” value in the assay on ReNCell VM [2] (library: Phytochemical) was inactive: 0.

The values above are taken from the supplement of paper PMC4635364.
